The target of the assay is rat Tie-2 (rTie-2), as used in BIAcore analysis (rat). Nature of the assay: BIAcore, reference molecule. For orientation: Surface plasmon resonance follows binding to a sensor surface in real time, without labels.

Results are given in words; binding and its absence hold for the method and conditions named. Some results given as binding are weak or reduced against the parent protein; the word gives no strength.

B1: FD1-Fc-FD1 (Fc fusion, human)
chain (part 1 of 2): FRDCADVYQAGFNKSGIYTIYINNMPEPKKVFCNMDVNGGGWTVIQHREDGSLDFQRGWKEYKMGFGNPSGEYWLGNEFIFAITSQRQYMLRIELMDWEGNRAYSQYDRFHIGNEKQNYRLYLKGHTGTAGKQSSLILHGADFSTKDADNDNCMCKCALMLTGGWWFDACGPSNLNGMFYTAGQNHGKLNGIKWHYFKGPSYSLRSTTMMIRPLDF
chain (part 2 of 2): B1 chain (part 1 of 2)
notes: domain: fibrinogen domain of Ang1; also called BA1; not shown: Fc
Consider B1, for which the binding entry is listed as “binds”.

(Values after patent publication US20130280758A1 (Regeneron, published 2013).)
